Laboratory results from the supplement of paper PMC10382679.
Single values of this set are uncertain.

B1: Rpb7; numbered along this chain (parent)
chain: MFFIKDLSLNITLHPSFFGPRMKQYLKTKLLEEVEGSCTGKFGYILCVLDYDNIDIQRGRILPTDGSAEFNVKYRAVVFKPFKGEVVDGTVVSCSQHGFEVQVGPMKVFVTKHLMPQDLTFNAGSNPPSYQSSEDVITIKSRIRVKIEGCISQVSSIHAIGSIKEDYLGAI

What was measured:
[1] = variants of: B1; assay: log2 fold change of mutant abundance, UV-irradiated vs unirradiated; higher = more UV resistant (enriched after UV); details: with Saccharomyces cerevisiae rad7Δ rad26Δ; UV dose (J/m2): 10; genetic background: rad7Δ rad26Δ rpb7Δ + plasmid RPB7 library; outgrowth: 10 cell divisions
[2] = variants of: B1; assay: NOISeq theta enrichment statistic, UV-irradiated vs unirradiated (dimensionless); higher = more UV resistant (enriched after UV); details: with Saccharomyces cerevisiae rad7Δ rad26Δ; UV dose (J/m2): 10; genetic background: rad7Δ rad26Δ rpb7Δ + plasmid RPB7 library; outgrowth: 10 cell divisions

Variant	log2 fold change of mutant abundance [1]	NOISeq theta enrichment statistic [2]
D166Y	-0.196	-0.293
Y167C	-0.32	-0.459
Y167D	-0.141	-0.177
Y167E	1.06	0.544
Y167F	0.0656	0.123
Y167H	-0.16	-0.288
Y167I	-0.547	-0.426
Y167K	-0.808	-0.346
Y167L	-0.287	-0.224
Y167N	-0.308	-0.464
Y167S	-0.322	-0.264
L168F	0.0721	0.102
L168G	-0.681	-0.24
L168I	-1.23	-0.685
L168M	-0.0389	-0.116
L168Q	-0.37	-0.152
L168R	0.225	0.175
L168S	0.102	0.195
L168V	-0.165	-0.311
L168W	0.0887	0.122
L168Y	-1.04	-0.614
G169A	0.0473	0.0566
G169C	-0.116	-0.311
G169D	0.126	0.346

Variant	log2 fold change of mutant abundance [1]	NOISeq theta enrichment statistic [2]
G169E	-0.535	-0.296
G169R	-0.113	-0.16
G169S	-0.0281	-0.0805
G169V	-0.134	-0.155
G169Y	1.58	0.639
A170D	-0.133	-0.322
A170E	-1.23	-0.649
A170G	0.128	0.199
A170N	0.971	0.493
A170P	-0.143	-0.174
A170S	-0.149	-0.232
A170T	-0.152	-0.406
A170V	-0.0667	-0.223
I171F	0.0101	0.0243
I171K	0.696	0.326
I171L	0.013	0.0113
I171M	-0.0922	-0.143
I171N	-0.196	-0.39
I171S	0.159	0.194
I171T	-0.101	-0.194
I171V	-0.0587	-0.198
I171Y	0.809	0.519
unchanged	0.0854	0.353

In a second layout: entries from further up
Variant,log2 fold change of mutant abundance [1],NOISeq theta enrichment statistic [2]
A170E,-1.23,-0.649
A170S,-0.149,-0.232
unchanged,0.0854,0.353
